doi:10.1101/2023.04.17.537183
These are yes or no findings as the source states them, for the method shown. Binding seen in cells or lysates may run through a third protein. Binding can be weak; no strength is given.

Amino acid sequences for entries named in this document (tags omitted). A change or cut given only in a name is not applied to a line headed by its entry.
UniProt Q8SY69: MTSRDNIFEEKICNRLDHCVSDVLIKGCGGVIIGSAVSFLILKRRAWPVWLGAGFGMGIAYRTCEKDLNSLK
UniProt Q5XKP0: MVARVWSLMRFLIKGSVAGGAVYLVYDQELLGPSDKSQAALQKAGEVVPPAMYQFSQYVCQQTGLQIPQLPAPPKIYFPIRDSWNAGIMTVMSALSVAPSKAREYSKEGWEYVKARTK

How the values were obtained:
Experiment in all cases: co-IP
[1] = target: T1, DmMIC60 (Mitofilin/Dmel_CG6455) (D. melanogaster (endogenous in flies)) (UniProt P91928)
T1 sequence: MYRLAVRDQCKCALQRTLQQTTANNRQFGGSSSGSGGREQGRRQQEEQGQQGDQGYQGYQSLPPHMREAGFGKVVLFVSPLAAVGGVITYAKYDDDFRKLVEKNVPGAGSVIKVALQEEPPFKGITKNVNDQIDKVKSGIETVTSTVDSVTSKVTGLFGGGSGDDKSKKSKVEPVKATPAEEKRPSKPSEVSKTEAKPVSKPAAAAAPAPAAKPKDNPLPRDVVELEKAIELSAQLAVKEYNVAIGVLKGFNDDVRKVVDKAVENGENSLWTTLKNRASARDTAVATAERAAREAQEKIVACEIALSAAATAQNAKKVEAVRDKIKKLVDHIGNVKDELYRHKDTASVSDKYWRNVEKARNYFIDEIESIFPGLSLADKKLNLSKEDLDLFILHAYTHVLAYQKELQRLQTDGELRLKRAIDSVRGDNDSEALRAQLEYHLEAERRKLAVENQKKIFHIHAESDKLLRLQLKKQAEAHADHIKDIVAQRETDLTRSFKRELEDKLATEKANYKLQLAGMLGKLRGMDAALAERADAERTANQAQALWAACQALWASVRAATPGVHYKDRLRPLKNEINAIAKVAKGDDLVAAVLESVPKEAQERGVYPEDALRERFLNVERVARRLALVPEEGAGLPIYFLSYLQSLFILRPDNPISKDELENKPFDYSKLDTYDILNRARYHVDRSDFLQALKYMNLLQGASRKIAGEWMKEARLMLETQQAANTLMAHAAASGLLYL

[2] = target: Dmel_CG41128-FLAG (DmMIC10b-FLAG) (D. melanogaster) (UniProt Q8SY69)
[3] = target: Dmel_CG41128/MINOS1b/DmMIC10b (D. melanogaster (endogenous in flies)) (UniProt Q8SY69)

For “Dmel_CG41128/MINOS1b/DmMIC10b (from UniProt Q8SY69)”, the binding [1] was “binds”.

For “MIC13 (human, HeLa) (from UniProt Q5XKP0 1-118)”, the binding [2] was “binds”.

B1: DmMIC13 (QIL1/Dmel_CG760) (protein, UniProt Q9VVH3 1-122)
chain: MVLGFLVRGGLVAATVYYTQKVGIWGDSDQTDKLYNDIKSELRPHVQKLEKQLPFEVPQLPKTGEMRFLAKHYYNEGVKNTFRFIHMLPCYAGRGLKKVKDTFQDFAQSPAIAGGAESSPPK
With B1 the binding [3] was “binds”.

B2: DmMIC60 (Mitofilin/Dmel_CG6455) (protein, UniProt P91928 1-739)
chain: MYRLAVRDQCKCALQRTLQQTTANNRQFGGSSSGSGGREQGRRQQEEQGQQGDQGYQGYQSLPPHMREAGFGKVVLFVSPLAAVGGVITYAKYDDDFRKLVEKNVPGAGSVIKVALQEEPPFKGITKNVNDQIDKVKSGIETVTSTVDSVTSKVTGLFGGGSGDDKSKKSKVEPVKATPAEEKRPSKPSEVSKTEAKPVSKPAAAAAPAPAAKPKDNPLPRDVVELEKAIELSAQLAVKEYNVAIGVLKGFNDDVRKVVDKAVENGENSLWTTLKNRASARDTAVATAERAAREAQEKIVACEIALSAAATAQNAKKVEAVRDKIKKLVDHIGNVKDELYRHKDTASVSDKYWRNVEKARNYFIDEIESIFPGLSLADKKLNLSKEDLDLFILHAYTHVLAYQKELQRLQTDGELRLKRAIDSVRGDNDSEALRAQLEYHLEAERRKLAVENQKKIFHIHAESDKLLRLQLKKQAEAHADHIKDIVAQRETDLTRSFKRELEDKLATEKANYKLQLAGMLGKLRGMDAALAERADAERTANQAQALWAACQALWASVRAATPGVHYKDRLRPLKNEINAIAKVAKGDDLVAAVLESVPKEAQERGVYPEDALRERFLNVERVARRLALVPEEGAGLPIYFLSYLQSLFILRPDNPISKDELENKPFDYSKLDTYDILNRARYHVDRSDFLQALKYMNLLQGASRKIAGEWMKEARLMLETQQAANTLMAHAAASGLLYL
For B2, the binding [3] was “binds”.
